{
  "source": "patent US12349704B2",
  "about": "“High quality cultured meat, compositions and methods for producing same” (ALEPH FARMS LTD., priority 2018, dated 2025)",
  "key": {"[1]": {"system": "mixture of BEF and BEM cells", "test": "Carotenoid uptake, UPLC-UV/Vis of cell pellet, mixture of BEF and BEM cells", "type": "cell-based, bovine", "details": "24 hours"}, "BEF cells [2]": {"system": "BEF cells", "details": "0.5 mM in medium, 24 hours"}, "BEF cells [3]": {"system": "BEF cells", "test": "Carotenoid uptake, UPLC-UV/Vis of cell pellet, BEF cells", "type": "cell-based, bovine", "details": "beta-carotene 10% emulsion red, 24 hours"}, "[4]": {"system": "Bovine embryonic fibroblasts (BEF)", "test": "Beta-carotene uptake from the medium into bovine cells (absorbance spectrum, spectrophotometer)", "type": "cell-based"}, "[5]": {"system": "mixture containing BEF and BEM cells", "test": "Zinc enrichment of cells, IPC-MS", "type": "cell-based, bovine", "details": "72 hours"}, "BEF cells [6]": {"system": "BEF cells", "test": "Cyanocobalamin coloring of bovine cells", "type": "cell-based"}, "BEF cells [7]": {"system": "BEF cells", "test": "Vitamin B12 enrichment of cells, HPLC-UV/Vis of cell pellet", "type": "cell-based, bovine"}, "[8]": {"details": "water soluble beta-carotene, BEF cells, after 24 hours"}},
  "data": [
    {"compound": "CC1=C(/C=C/C(C)=C/C=C/C(C)=C/C=C/C=C(C)/C=C/C=C(C)/C=C/C2=C(C)C(=O)CCC2(C)C)C(C)(C)CCC1=O", "note": "[Canthaxanthin]", "values": [
      {"measurement": "cells pellet color", "setting": "[1]; 1.1 mg/ml", "value": "red-orange"},
      {"measurement": "uptake, concentration of pure nutrient in the cells", "setting": "[1]; Canthaxanthin 10% CWS/S, 1.1 mg/ml in medium, BEF and BEM cells", "value": 420, "unit": "μg Canthaxanthin/gr cells"}
    ]},
    {"compound": "O.O.O.O.O.O.O.O=S(=O)([O-])[O-].[Fe+2]", "note": "[Iron Sulfate heptahydrate, Iron (II) Sulfate heptahydrate]", "values": [
      {"measurement": "increase of iron content versus standard medium only", "setting": "BEF cells [2]", "value": "about 3 fold"},
      {"measurement": "iron content of cells", "setting": "BEF cells [2]; BEF cells at full confluence, standard medium only 8.36", "value": 25.11, "unit": "μg iron/g cells"}
    ]},
    {"compound": "CC1=C(/C=C/C(C)=C/C=C/C(C)=C/C=C/C=C(C)/C=C/C=C(C)/C=C/C2=C(C)CCCC2(C)C)C(C)(C)CCC1", "note": "[beta-carotene]", "values": [
      {"measurement": "cells pellet color", "setting": "BEF cells [3]; 110 μg/ml", "value": "red-orange color"},
      {"measurement": "uptake, concentration of pure nutrient in the cells", "setting": "BEF cells [3]; 0.11 mg/ml in medium", "value": 200, "unit": "μg beta-carotene/gr cells"},
      {"measurement": "total uptake of beta carotene by the cells", "setting": "[4]; 100 μg of beta-carotene applied to 1.4*10^6 cells, 24 hours", "value": 40, "unit": "µg"},
      {"measurement": "color of the cells", "setting": "[4]; water soluble beta-carotene, 24 hours", "value": "strong orange color"},
      {"measurement": "decrease of beta carotene optical density peak at 450 nm in the growth medium", "setting": "[4]; [8]", "value": 2.7, "unit": "fold"},
      {"measurement": "decrease of beta carotene optical density peak at 480 nm in the growth medium", "setting": "[4]; [8]", "value": 2.3, "unit": "fold"},
      {"measurement": "decrease of beta carotene optical density peak at 520 nm in the growth medium", "setting": "[4]; [8]", "value": 2.4, "unit": "fold"}
    ]},
    {"compound": "[Cl-].[Cl-].[Zn+2]", "note": "[zinc chloride, Zinc chloride]", "values": [
      {"measurement": "zinc content of cells (uptake)", "setting": "[5]; 100 μM (13 μg/ml), unsupplemented medium 8.5", "value": 30.44, "unit": "μg zinc/gr cells"},
      {"measurement": "increase of zinc content versus unsupplemented medium", "setting": "[5]; 100 μM", "value": "about 3.6 folds"}
    ]},
    {"compound": "Cyanocobalamin [Vitamin B12]", "values": [
      {"measurement": "color of the cells", "setting": "BEF cells [6]; 10 μg/ml, 24 h", "value": "no visual change"},
      {"measurement": "color of the cells", "setting": "BEF cells [6]; 100 μg/ml, 24 h", "value": "no visual change"},
      {"measurement": "color of the cells", "setting": "BEF cells [6]; 1 mg per ml growth medium, bovine-embryonic fibroblasts and myoblasts", "value": "distinct red-pink color"},
      {"measurement": "color of the cells", "setting": "BEF cells [6]; 1000 μg/ml, 24 h", "value": "red-pink"},
      {"measurement": "kind of uptake over the concentrations examined", "setting": "BEF cells [7]; 1.67, 3.33, 6.67 and 13.3 mg/ml", "value": "linear uptake"},
      {"measurement": "cells pellets color", "setting": "BEF cells [7]; 13.3, 6.67, 3.33 and 1.67 mg/ml, 24 hours", "value": "red-pink in various intensities"},
      {"measurement": "μg Vitamin B12/g cells", "setting": "BEF cells [7]; concentration in the medium 1.67 mg/ml, 24 hours", "value": 104.0, "unit": "μg Vitamin B12/g cells"},
      {"measurement": "μg Vitamin B12/g cells", "setting": "BEF cells [7]; concentration in the medium 3.33 mg/ml, 24 hours", "value": 417, "unit": "μg Vitamin B12/g cells"},
      {"measurement": "μg Vitamin B12/g cells", "setting": "BEF cells [7]; concentration in the medium 6.67 mg/ml, 24 hours", "value": 851, "unit": "μg Vitamin B12/g cells"},
      {"measurement": "μg Vitamin B12/g cells", "setting": "BEF cells [7]; concentration in the medium 13.33 mg/ml, 24 hours", "value": 1102, "unit": "μg Vitamin B12/g cells"}
    ]}
  ]
}
